Results on one compound are retold here after patent publication US20160029683A1, “LOW CALORIE INFANT FORMULA CONTAINING BETA-HYDROXY-BETA-METHYLBUTYRIC ACID” (ABBOTT LABORATORIES, priority 2013, published 2016).

What all share (assay type): in vivo, neonatal pigs
Series [1] is described as follows: Plasma glucose concentrations in HMB-infused piglets. On the procedure:
(§1) Overnight fasted neonatal pigs (5-7 days old) were infused with HMB with 0, 20, 100, or 400 μmol·kg^−1·hr^−1 HMB. Blood plasma concentrations of the following circulating substrates were measured. HMB was measured using gas chromatography per the method set forth in: Nissen, Steven (1990). Analysis of β-Hydroxy-β-methyl Butyrate in Plasma by Gas […] Chromatography and Mass Spectrometry Analytical Biochemistry 188, 17-19.

The nature of series [2]: Plasma concentrations of alpha-keto acids of branched chain amino acids in HMB-infused piglets. The conditions noted are these: infusion of 20, 100 or 400 μmol·kg^−1·hour^−1 HMB. On the procedure:
as §1, with “17-19. Alpha-keto acids of branched chain amino acids (i.e., a-ketoisocaproic acid (KIC, the α-keto acid of leucine), α-ketoisovalerate (KIV, the α-keto acid of valine) and α-ketomethylvalerate (KMV, the α-keto acid of isoleucine)) were measured by high pressure liquid chromatography using the method set forth in: Nissen, S. L. (1982). Measurement of branched chain amino acids and branched chain alpha-ketoacids in plasma by high performance liquid chromatography. J Chromatog 232, 170-175.” for “17-19.”

A short description of series [3]: Plasma amino acid concentrations (leucine, BCAA, EAA, NEAA) in HMB-infused piglets. The conditions noted are these: infusion of 20, 100 or 400 μmol·kg^−1·hour^−1 HMB for one hour. On the procedure: as §1, with “17-19. Amino acids including leucine, other branched-chain amino acids (BCAA), essential amino acids (EAA) and nonessential amino acids (NEAA) were determined using high pressure liquid chromatography using the method set forth in: Davis TA(1993). Enhanced response of muscle protein synthesis and plasma insulin to food intake in suckled rats. Am J Physiol Regul Integr Comp Physiol 265:R334-R340.” for “17-19.”

Take `CC(C)(O)CC(=O)O` [HMB, beta-hydroxy-beta-methylbutyric acid]: in series [1] (infusion of 20 μmol·kg^−1·hour^−1 HMB for one hour), the plasma glucose concentration entry is listed as “modestly, but significantly (P<0.5), increased”. In series [1] (infusion of 400 μmol·kg^−1·hour^−1 HMB for one hour), the plasma glucose concentration entry is reported as “modestly, but significantly (P<0.5), increased”. In series [2], the “circulating concentration of KIC” value was “no impact”, the “circulating concentration of KIV” value is listed as “no impact” and the “circulating concentration of KMV” value is “no impact”. Also, in series [3], the “plasma concentration of BCAA” value was “no effect”, the “plasma concentration of EAA” value is “no effect”, the “plasma concentration of NEAA” value was “no effect” and the “plasma concentration of leucine” value is given as “no effect”.
